Source: PMC7536833
These are yes or no findings as the source states them, for the method shown. In cells and extracts the contact can be indirect. Some binding calls cover weakened binding; strength is not graded here. For some of these results: Tags and fused reporters may be left off the sequences shown. Values belong to the binder of their own block, whether it stands above or below them.

Legend:
Assay in all cases: co-IP; reciprocal immunoprecipitation of TAP-tagged bait followed by Western blotting; yeast in synchronous meiosis arrested at prophase I by ndt80Δ
[1] = molecular target: T1, TAP-Mps2 (budding yeast (SK1 background)) (UniProt P53159)
T1 sequence: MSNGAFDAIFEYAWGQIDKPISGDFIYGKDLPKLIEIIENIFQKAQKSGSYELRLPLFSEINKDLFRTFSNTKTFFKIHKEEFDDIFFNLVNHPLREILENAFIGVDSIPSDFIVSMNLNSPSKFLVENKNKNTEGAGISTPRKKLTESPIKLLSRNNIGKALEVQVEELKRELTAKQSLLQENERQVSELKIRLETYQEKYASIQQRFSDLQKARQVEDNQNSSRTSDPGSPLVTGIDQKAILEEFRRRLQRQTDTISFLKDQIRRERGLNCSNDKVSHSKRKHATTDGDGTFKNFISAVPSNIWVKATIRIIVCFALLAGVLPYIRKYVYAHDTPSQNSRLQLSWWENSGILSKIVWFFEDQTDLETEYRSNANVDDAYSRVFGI

[2] = molecular target: T2, TAP-Csm4 (budding yeast (SK1 background)) (UniProt Q08955)
T2 sequence: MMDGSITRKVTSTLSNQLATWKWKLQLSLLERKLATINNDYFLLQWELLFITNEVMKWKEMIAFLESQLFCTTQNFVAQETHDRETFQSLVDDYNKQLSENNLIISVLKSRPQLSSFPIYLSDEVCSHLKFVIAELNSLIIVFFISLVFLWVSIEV

[3] = molecular target: T3, TAP-Mps3 (budding yeast (SK1 background)) (UniProt P47069)
T3 sequence: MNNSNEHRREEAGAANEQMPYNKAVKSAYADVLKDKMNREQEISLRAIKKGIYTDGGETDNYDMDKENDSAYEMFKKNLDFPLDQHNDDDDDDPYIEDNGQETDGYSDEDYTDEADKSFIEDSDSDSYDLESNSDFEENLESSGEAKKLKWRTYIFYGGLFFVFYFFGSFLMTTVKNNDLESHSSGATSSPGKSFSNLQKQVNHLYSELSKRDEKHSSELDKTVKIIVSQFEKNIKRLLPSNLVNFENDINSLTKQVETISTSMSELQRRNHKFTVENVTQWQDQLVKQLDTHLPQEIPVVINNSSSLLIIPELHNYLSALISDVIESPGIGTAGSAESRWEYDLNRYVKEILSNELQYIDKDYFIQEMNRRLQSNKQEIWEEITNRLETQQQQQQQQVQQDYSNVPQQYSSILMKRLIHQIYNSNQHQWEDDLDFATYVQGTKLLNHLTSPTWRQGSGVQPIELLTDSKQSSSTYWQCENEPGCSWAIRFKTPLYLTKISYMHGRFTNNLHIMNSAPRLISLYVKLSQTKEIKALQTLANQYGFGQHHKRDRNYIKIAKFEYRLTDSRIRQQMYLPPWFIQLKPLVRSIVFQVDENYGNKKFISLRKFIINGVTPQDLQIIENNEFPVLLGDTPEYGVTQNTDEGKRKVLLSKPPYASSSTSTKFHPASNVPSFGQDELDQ

binding [1]: binds
B2: Mps3-V5 (protein, UniProt P47069 1-682)
chain: T3 sequence

binding [2]: binds
B3: Mps2-3HA (protein, UniProt P53159 1-387)
chain: T1 sequence

Second part, the binder before the results:

B1: V5-Csm4 (protein, UniProt Q08955 1-156)
chain: T2 sequence
binding [1]: binds

B4: V5-Mps2 (protein, UniProt P53159 1-387)
chain: T1 sequence
binding [3]: binds
